Source: patent EP3187180A1, “ADENOSYLHOMOCYSTEINASE BINDING SUBSTANCES FOR MEDICAL USE” (Ludwig-Maximilians-Universität München, priority 2015, dated 2017)
At least one compound was matched to its structure with a doubt left.

Test system: AHCY wild-type and mutated AHCY proteins
Assay: Differential Scanning Fluorimetry (DSF), statements over the panel of proteins
Assay type: binding, human
Conditions: wild-type and/or mutated AHCY proteins, 1-100 µM or 5-100 µM

C=C1CCC[C@H]2[C@](C)(CC3=C(O)C(=O)C=C(OC)C3=O)[C@@H](C)CC[C@]12C [ilimaquinone]
stabilizing effect on thermal stability (in words): protecting effect against thermal unfolding
